Measurements reported in PubChem BioAssay AID308 (DTP/NCI, 2004).
The list does not hold the whole screen: it is rich in T/C values a quarter to a half above the control, in often repeated tests (any T/C) and in doses without a T/C. Further doses and runs are listed elsewhere. T/C is the treated group as % of the vehicle group. Some doses have a count of surviving animals in place of a T/C: the source files T/C as zero there, which appears to mark a toxic dose or a test without result, not a measured value. Some doses without a T/C left all or most animals alive at the check, yet need not have been tolerated: survival well below the control is almost never listed, so the zero probably covers shortened survival too. Survivors were counted at the toxicity check, usually on the fifth day, unless a day is given; later deaths do not show. Schedule codes are those of the source, taken here to give the interval after Q, in days (D) or hours (H), and the number of doses after X. Some schedule codes hold Z or #, which are not explained here. For survival time, the PubChem record calls one and a half times the control and up active, and a quarter to a half above the control has no call in these data; cut-offs in other NCI protocols can differ. Some entries hold several experiments; the results are listed from low to high. Additions like (4×) stand for listed records that agree. Some T/C values are followed by the survivors on the day toxicity was checked, most often the fifth; where none is given, no animal had died by that day.

System: BDF1 mice, L1210 6-MP/6-TG resistant leukemia ip, survival T/C
Assay: NCI In Vivo Anticancer Drug Screen. Data for tumor model L1210 Leukemia resistant to 6-MP and 6-Thioguanine; NSC 755, NSC 752 (intraperitoneal) in B6D2F1 (BDF1) mice
Settings: T/C endpoint: mean survival time, higher T/C = longer survival
Procedure: The antitumor activity of compounds was measured in mice bearing transplantable tumors. Survival or tumor size were measured and the results are expressed as the measurement made in the treated group (T) divided by the measurement made in the vehicle treated control group (C). The tumor model used in this assay is L1210 Leukemia resistant to 6-MP and 6-Thioguanine; NSC 755, NSC 752 (intraperitoneal) in B6D2F1 (BDF1) mice

## Nn1cnc2c(=S)nc[nH]c21
dose: 120.0 mg/kg/injection, schedule: Q01DX015 (ip), vehicle: other
  survivor count: 10 of 10
dose: 200.0 mg/kg/injection, schedule: Q01DX015 (ip), vehicle: other
  survivor count: 10 of 10

## CS(=O)(=O)OCC(O)C(O)COS(C)(=O)=O (stereo not given)
dose: 500.0 mg/kg/injection, schedule: Q01DX Z (ip), vehicle: carboxymethylcellulose (CMC)
  T/C: 133 % of control

## Nc1nc(SCc2ccccc2)c2ncn(C3OC(CO)CC3O)c2n1 (stereo not given)
dose: 300.0 mg/kg/injection, schedule: Q01DX009 (ip), vehicle: other
  survivor count: 6 of 6

## O=C(O)CCCc1ccc(N(CCCl)CCCl)cc1
dose: 40.0 mg/kg/injection, schedule: Q01DX Z (ip), vehicle: carboxymethylcellulose (CMC)
  survivor count: 3 of 6
dose: 50.0 mg/kg/injection, schedule: Q01DX Z (ip), vehicle: carboxymethylcellulose (CMC)
  survivor count: 0 of 6

## CNS(=O)(=O)c1ncnc2nc[nH]c12
dose: 21.0 mg/kg/injection, schedule: Q01DX Z (ip), vehicle: carboxymethylcellulose (CMC)
  T/C: 130 % of control [5 of 6 alive]
dose: 47.0 mg/kg/injection, schedule: Q01DX Z (ip), vehicle: carboxymethylcellulose (CMC)
  T/C: 142 % of control

## N[C@@H](Cc1ccc(N(CCCl)CCCl)cc1)C(=O)O
dose: 18.0 mg/kg/injection, schedule: Q01DX Z (ip), vehicle: carboxymethylcellulose (CMC)
  survivor count: 6 of 6
dose: 24.0 mg/kg/injection, schedule: Q01DX Z (ip), vehicle: carboxymethylcellulose (CMC)
  survivor count: 3 of 6
dose: 36.0 mg/kg/injection, schedule: Q01DX Z (ip), vehicle: carboxymethylcellulose (CMC)
  survivor count: 1 of 6
dose: 54.0 mg/kg/injection, schedule: Q01DX Z (ip), vehicle: carboxymethylcellulose (CMC)
  survivor count: 0 of 6

## CN(C)c1nc(N(C)C)nc(N(C)C)n1
dose: 200.0 mg/kg/injection, schedule: Q01DX Z (ip), vehicle: other
  survivor count: 6 of 6
dose: 400.0 mg/kg/injection, schedule: Q01DX Z (ip), vehicle: other
  survivor count: 0 of 6

## S=c1nc[nH]c2nc[nH]c12
dose: 28.0 mg/kg/injection, schedule: Q01DX Z (ip), vehicle: carboxymethylcellulose (CMC)
  T/C: 94, 95, 97, 107 % of control
dose: 56.0 mg/kg/injection, schedule: Q01DX Z (ip), vehicle: carboxymethylcellulose (CMC)
  survivor count: 6 of 6
dose: 80.0 mg/kg/injection, schedule: Q01DX010 (ip), vehicle: alkali diluted with saline
  survivor count: 10 of 10
dose: 91.0 mg/kg/injection, schedule: Q01DX001 (ip), vehicle: carboxymethylcellulose (CMC)
  T/C: 93, 95, 102, 104, 108 % of control (2×)
dose: 135.0 mg/kg/injection, schedule: Q01DX001 (ip), vehicle: carboxymethylcellulose (CMC), evaluated on day 45
  T/C: 87, 99, 100, 102, 104, 105 % of control
dose: 135.0 mg/kg/injection, schedule: Q01DX001 (ip), vehicle: carboxymethylcellulose (CMC), run until all animals had died
  T/C: 100 and 105 % of control

## CCCNc1ncnc2[nH]ncc12
dose: 50.0 mg/kg/injection, schedule: Q01DX Z (ip), vehicle: saline
  survivor count: 6 of 6
dose: 75.0 mg/kg/injection, schedule: Q01DX Z (ip), vehicle: saline
  survivor count: 6 of 6
dose: 100.0 mg/kg/injection, schedule: Q01DX Z (ip), vehicle: saline
  survivor count: 0 of 6

## CC(=O)N(C)C
dose: 62.5 mg/kg/injection, schedule: Q01DX Z (ip), vehicle: saline
  T/C: 127 % of control

## O=C(Nc1ccc(C2=NCCN2)cc1)c1ccc(C(=O)Nc2ccc(C3=NCCN3)cc2)cc1
dose: 9.37 mg/kg/injection, schedule: Q01DX Z (ip), vehicle: carboxymethylcellulose (CMC)
  T/C: 133 % of control
dose: 37.5 mg/kg/injection, schedule: Q01DX Z (ip), vehicle: carboxymethylcellulose (CMC)
  T/C: 138 % of control
dose: 250.0 mg/kg/injection, schedule: Q01DX Z (ip), vehicle: carboxymethylcellulose (CMC)
  survivor count: 3 of 6

## CN(C)/N=N/c1nc[nH]c1C(N)=O
dose: 100.0 mg/kg/injection, schedule: Q01DX015 (ip), vehicle: carboxymethylcellulose (CMC)
  T/C: 129 % of control
dose: 400.0 mg/kg/injection, schedule: Q01DX015 (ip), vehicle: carboxymethylcellulose (CMC)
  survivor count: 4 of 6

## CCCC(=O)OCC1OC(n2cnc3c(=S)nc(N)[nH]c32)C(OC(=O)CCC)C1OC(=O)CCC (stereo not given)
dose: 48.0 mg/kg/injection, schedule: Q01DX Z (ip), vehicle: carboxymethylcellulose (CMC)
  survivor count: 6 of 6
